Data reported in patent US9827292B2, “Use of KGF in the treatment of menopausal disorders” (Università degli Studi di Roma “La Sapienza”, priority 2012, dated 2017).
Some results were stated once for a whole list of compounds, not compound by compound.

Assay: In vitro release test of Pluronic F127 hydrogel with model molecules
Type: physicochemical
Details: F127 20% w/v, 60 ml H2O, 37° C., FIG. 6D
Procedure: 2 mL of loaded hydrogel containing 4 mg of myoglobin or prednisolone in a solution of 20% Pluronic F127 w/v were introduced into a dialysis membrane bag (MWCO 3500 Da), and the dialysis bag sealed at the end was incubated in 60 mL of release medium (distilled water) at 37° C. and was stirred at a rate of 50 rpm. Saturation conditions were avoided by means of frequent substitution of fresh water. At predetermined intervals, aliquots of 0.5 mL of release medium were removed and substituted with an equal volume of fresh solution. The release behaviour in vitro of hydrogel loaded with myoglobin was compared with that of hydrogel loaded with prednisolone. All the assays were conducted in triplicate. Release profiles were expressed in cumulative release percentages over time.
The loaded hydrogels were prepared by solubilising at low temperature, in a 5 ml vial, an exact quantity of model molecule (approximately 4-5 mg) in 2 ml of solution of F127 20% w/v; the solution was then brought to the hydrogel state by placing the hermetically sealed vial at 37° C. The vial, closed at the head with a perforated mesh, was then introduced into the release medium (60 ml bidistilled H2O, T=37° C.) and held under constant and gentle stirring. The release therefore occurred by means of diffusion from the upper surface of the gel to the dissolution medium. […]

Compound	period within which release from hydrogel was almost total [h]
C[C@]12C=CC(=O)C=C1CC[C@@H]1[C@@H]2[C@@H](O)C[C@@]2(C)[C@H]1CC[C@]2(O)C(=O)CO [prednisolone]	≤ 24
myoglobin	≤ 24
